In article PMC4337728:
Results are given in words; binding and its absence hold for the method and conditions named. In cells and extracts the contact can be indirect. Some entries that bind do so weakly or less than the wild type.

Protein sequences, listed by entry. Tags and fused reporters are not part of them.
UniProt P10415: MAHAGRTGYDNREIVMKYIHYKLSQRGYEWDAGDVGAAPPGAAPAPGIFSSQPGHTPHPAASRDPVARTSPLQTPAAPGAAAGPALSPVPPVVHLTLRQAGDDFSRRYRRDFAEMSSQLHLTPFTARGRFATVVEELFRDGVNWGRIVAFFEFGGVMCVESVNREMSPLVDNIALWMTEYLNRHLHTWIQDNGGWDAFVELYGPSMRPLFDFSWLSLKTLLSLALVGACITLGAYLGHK

How the values were obtained:
[1] = biological target: Beclin 1 (endogenous, HeLa) (human (endogenous in HeLa)) (UniProt Q14457); assay: co-IP; HeLa/BCL2 cells 2 hr after starvation in HBSS; precipitation with polyclonal rabbit anti-Beclin 1, BCL2 probed with a monoclonal HRP antibody
[2] = biological target: Beclin 1 (endogenous, HeLa) (human (endogenous in HeLa)) (UniProt Q14457); assay: co-IP; HeLa/BCL2 cells before and early in a time course of starvation in HBSS; precipitation with polyclonal rabbit anti-Beclin 1, BCL2 probed with a monoclonal HRP antibody

binding [2]: binds
Substance: Myc-BCL2, wild-type (from UniProt P10415 1-239)
binding [1]: no binding (condition: 2 hr after starvation in HBSS)
